Data source: PubChem BioAssay AID686937 (Drosophila RNAi Screening Center, 2013)

Test: 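Genes whose loss weakens secretory pathway function in fly cells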 (primary screen)
Cell system: Drosophila S2 cells expressing secreted horseradish peroxidase
Reagents: long dsRNA against Drosophila genes
Timing: about 5.5 days (5 days dsRNA, then 12 h reporter induction)
Challenge: reporter expression induced after 5 days of dsRNA, read 12 h later; inducer not stated
Measured: 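After 5 days of dsRNA and 12 h of reporter induction, medium peroxidase read by chemiluminescence and scored as per-plate z-score; higher values mean more reporter released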
Scale: z-score: higher = more reporter secreted into medium
The screen tested about 23,000 reagents; shown is a random part of those with a known target gene and a result. 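Reduced-secretion tags in replicate 1 do not always agree with the z-scores; no criterion for assigning the tags was given.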 Names joined by + are all predicted targets of the reagent. Not given: the amount of reagent.

Against CR16735 [DRSC15144], the entry reads z-score, replicate 1 = -0.46; z-score, replicate 2 = 0.35.
Knock-down of CG42518 + MED9 [DRSC06917] gave: z-score, replicate 1 = 0.16; z-score, replicate 2 = 0.32.
Against NijB [DRSC09850], the values are z-score, replicate 1 = 0.63; z-score, replicate 2 = 0.48.
CG14262 [DRSC14757] scored z-score, replicate 1 = 0.25; z-score, replicate 2 = 0.31.
After knock-down of CG3339 [DRSC13821], the record shows z-score, replicate 1 = 0.12; z-score, replicate 2 = 0.29.
Against CG3339 [DRSC15479] the deposit lists z-score, replicate 1 = 0.28; z-score, replicate 2 = 0.33.
fdl [DRSC07279] scored z-score, replicate 1 = 0.33; z-score, replicate 2 = 0.34.
With knock-down of Cpr73D [DRSC11084] the results were z-score, replicate 1 = 0.33; z-score, replicate 2 = 0.48.
Knock-down of Or85c [DRSC16766] came out at: z-score, replicate 1 = 0.22; z-score, replicate 2 = 0.18.
For Ube4A [DRSC02004] the deposit lists z-score, replicate 1 = 0.02; z-score, replicate 2 = 0.16.
Silencing of ItgaPS4 [DRSC06630] resulted in: z-score, replicate 1 = -0.01; z-score, replicate 2 = 0.27.
After knock-down of Galphai [DRSC11168], the record shows z-score, replicate 1 = -0.02; z-score, replicate 2 = 0.22.
Silencing of CG13877 + pyx [DRSC08347] gave: z-score, replicate 1 = 0.43; z-score, replicate 2 = 0.21.
For rhi [DRSC05996] the deposit lists z-score, replicate 1 = -0.2; z-score, replicate 2 = 0.26.
After knock-down of CG5262 [DRSC11773], the record shows z-score, replicate 1 = 0.35; z-score, replicate 2 = 0.26.
After knock-down of CR42548 [DRSC09514], the record shows z-score, replicate 1 = -0.13; z-score, replicate 2 = -0.01.

A portion taken from the entries so far, for reference:
Or85c [DRSC16766] | z-score, replicate 1: 0.22; z-score, replicate 2: 0.18
Ube4A [DRSC02004] | z-score, replicate 1: 0.02; z-score, replicate 2: 0.16
